Source: the supplement of paper PMC8728848
The list shows a part of the results.

How the values were obtained:
Test in all cases: glycan array binding signal (z-score within array); higher = stronger binding
Conditions in all cases: glycan notation: IUPAC condensed, linker removed
[1] = target: Neu5Ac(a2-6)Gal(b1-4)GlcNAc(b1-2)Man(a1-3)[Man(a1-6)]Man(b1-4)GlcNAc(b1-4)GlcNAc
Summary of the method: (§1)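 Glycan array data were curated from 3228 arrays in the Consortium for Functional Glycomics database and kept only where the protein sequence was available. Glycan names were converted to IUPAC-condensed notation, and columns mapping to the same glycan were averaged. The binding signal is a within-array Z-score, averaged across arrays of the same protein sequence at different concentrations or buffers and across linkers. Negative Z-scores can be read as non-binding.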

[2] = target: Neu5Ac(a2-6)Gal(b1-4)GlcNAc(b1-2)Man(a1-3)[Neu5Ac(a2-3)Gal(b1-4)GlcNAc(b1-2)Man(a1-6)]Man(b1-4)GlcNAc(b1-4)GlcNAc
Summary of the method: as §1

[3] = target: Neu5Ac(a2-6)Gal(b1-4)GlcNAc(b1-2)Man(a1-3)[Neu5Ac(a2-6)Gal(b1-4)GlcNAc(b1-2)Man(a1-6)]Man(b1-4)GlcNAc(b1-4)GlcNAc
Summary of the method: as §1

[4] = target: Neu5Ac(a2-6)Gal(b1-4)GlcNAc(b1-2)Man(a1-3)[Neu5Ac(a2-6)Gal(b1-4)GlcNAc(b1-2)Man(a1-6)]Man(b1-4)GlcNAc(b1-4)[Fuc(a1-6)]GlcNAc
Summary of the method: as §1

[5] = target: Neu5Ac(a2-6)Gal(b1-4)GlcNAc(b1-2)Man(a1-6)Man(b1-4)GlcNAc(b1-4)GlcNAc
Summary of the method: as §1

[6] = target: Neu5Ac(a2-6)Gal(b1-4)GlcNAc(b1-2)Man(a1-6)[Gal(b1-4)GlcNAc(b1-2)Man(a1-3)]Man(b1-4)GlcNAc(b1-4)GlcNAc
Summary of the method: as §1

[7] = target: Neu5Ac(a2-6)Gal(b1-4)GlcNAc(b1-2)Man(a1-6)[GlcNAc(b1-2)Man(a1-3)]Man(b1-4)GlcNAc(b1-4)GlcNAc
Summary of the method: as §1

[8] = target: Neu5Ac(a2-6)Gal(b1-4)GlcNAc(b1-2)Man(a1-6)[Man(a1-3)]Man(b1-4)GlcNAc(b1-4)GlcNAc
Summary of the method: as §1

[9] = target: Neu5Ac(a2-6)Gal(b1-4)GlcNAc(b1-2)[Neu5Ac(a2-6)Gal(b1-4)GlcNAc(b1-4)]Man(a1-3)[GlcNAc(b1-4)][Neu5Ac(a2-6)Gal(b1-4)GlcNAc(b1-2)[Neu5Ac(a2-6)Gal(b1-4)GlcNAc(b1-6)]Man(a1-6)]Man(b1-4)GlcNAc(b1-4)GlcNAc
Summary of the method: as §1

[10] = target: Neu5Ac(a2-6)Gal(b1-4)GlcNAc(b1-2)[Neu5Ac(a2-6)Gal(b1-4)GlcNAc(b1-4)]Man(a1-3)[GlcNAc(b1-4)][Neu5Ac(a2-6)Gal(b1-4)GlcNAc(b1-4)Man(a1-6)]Man(b1-4)GlcNAc(b1-4)GlcNAc
Summary of the method: as §1

[11] = target: Neu5Ac(a2-6)Gal(b1-4)GlcNAc(b1-2)[Neu5Ac(a2-6)Gal(b1-4)GlcNAc(b1-6)]Man(a1-6)[Neu5Ac(a2-6)Gal(b1-4)GlcNAc(b1-2)Man(a1-3)][GlcNAc(b1-4)]Man(b1-4)GlcNAc(b1-4)GlcNAc
Summary of the method: as §1

[12] = target: Neu5Ac(a2-6)Gal(b1-4)GlcNAc(b1-3)Gal(b1-3)GlcNAc
Summary of the method: as §1

[13] = target: Neu5Ac(a2-6)Gal(b1-4)GlcNAc(b1-3)Gal(b1-4)GlcNAc
Summary of the method: as §1

[14] = target: Neu5Ac(a2-6)Gal(b1-4)GlcNAc(b1-3)Gal(b1-4)GlcNAc(b1-2)Man(a1-3)[Neu5Ac(a2-6)Gal(b1-4)GlcNAc(b1-3)Gal(b1-4)GlcNAc(b1-2)Man(a1-6)]GalNAc
Summary of the method: as §1

[15] = target: Neu5Ac(a2-6)Gal(b1-4)GlcNAc(b1-3)Gal(b1-4)GlcNAc(b1-3)Gal(b1-4)GlcNAc
Summary of the method: as §1

[16] = target: Neu5Ac(a2-6)Gal(b1-4)GlcNAc(b1-3)Gal(b1-4)GlcNAc(b1-3)Gal(b1-4)GlcNAc(b1-2)Man(a1-3)[Neu5Ac(a2-6)Gal(b1-4)GlcNAc(b1-3)Gal(b1-4)GlcNAc(b1-3)Gal(b1-4)GlcNAc(b1-2)Man(a1-6)]GalNAc
Summary of the method: as §1

[17] = target: Neu5Ac(a2-6)Gal(b1-4)GlcNAc(b1-3)Gal(b1-4)GlcNAc(b1-3)GalNAc
Summary of the method: as §1

[18] = target: Neu5Ac(a2-6)Gal(b1-4)GlcNAc(b1-3)Gal(b1-4)GlcNAc(b1-3)[Neu5Ac(a2-6)Gal(b1-4)GlcNAc(b1-3)Gal(b1-4)GlcNAc(b1-6)]GalNAc
Summary of the method: as §1

[19] = target: Neu5Ac(a2-6)Gal(b1-4)GlcNAc(b1-3)Gal(b1-4)GlcNAc(b1-6)[Gal(b1-3)]GalNAc
Summary of the method: as §1

[20] = target: Neu5Ac(a2-6)Gal(b1-4)GlcNAc(b1-3)Gal(b1-4)[Fuc(a1-3)]GlcNAc(b1-3)Gal(b1-4)[Fuc(a1-3)]GlcNAc
Summary of the method: as §1

[21] = target: Neu5Ac(a2-6)Gal(b1-4)GlcNAc(b1-3)GalNAc
Summary of the method: as §1

[22] = target: Neu5Ac(a2-6)Gal(b1-4)GlcNAc(b1-3)[Neu5Ac(a2-6)Gal(b1-4)GlcNAc(b1-6)]GalNAc
Summary of the method: as §1

[23] = target: Neu5Ac(a2-6)Gal(b1-4)GlcNAc(b1-6)GalNAc
Summary of the method: as §1

[24] = target: Neu5Ac(a2-6)Gal(b1-4)GlcNAc(b1-6)[Gal(b1-3)GlcNAc(b1-3)]Gal(b1-4)Glc
Summary of the method: as §1

[25] = target: Neu5Ac(a2-6)Gal(b1-4)GlcNAc(b1-6)[Gal(b1-3)]GalNAc
Summary of the method: as §1

[26] = target: Neu5Ac(a2-6)Gal(b1-4)GlcNAc6S
Summary of the method: as §1

Neu5Ac(a2-6)GalNAc = target: Neu5Ac(a2-6)GalNAc
Summary of the method: as §1

[27] = target: Neu5Ac(a2-6)GalNAc(b1-4)GlcNAc
Summary of the method: as §1

[28] = target: Neu5Ac(a2-6)GalNAc(b1-4)GlcNAc6S
Summary of the method: as §1

[29] = target: Neu5Ac(a2-6)GlcNAc(b1-4)GlcNAc
Summary of the method: as §1

[30] = target: Neu5Ac(a2-6)GlcNAc(b1-4)GlcNAc(b1-4)GlcNAc
Summary of the method: as §1

B1: GS7807G-bfa-506-18-506 (Bacteroides fragilis) (protein)
chain: ASCDKFDEINTDPDATTKVTSSLLATGLLLDITSSSASKSFIYDELLAKQMAWGESMEDYQYNVFGRSGFGGYTTLINAQKMVESVSDDNVNAYDGLAHFIKAYKIFYMSMEMGDLPYEEALQGELGLVRPKYNTQKEVMNFILSDLETAYELFSTAKDFDGDPILGGSISKWKKATTAFQLKVLMHLSKKESDADLKVKERFARIVASGSLMESNEDNLQMKYADKANTVYPFHNTNTKHAGYAMLSTMLIDKFKATGDIRMFYYAKPAKAKLNEGVTADSWDAYIGTDPSLPFEQIEKAYATEQYSGFNARYTDYPSGEPVVRLGYAEQNFILAEAAVRGWISGDASAYYKKAIRAHMEFIASNTPDEEVYHHGHPITEEAIAAFLETPAIQLSGEKEEDIEKILTQRYLASFMQHPYDVYYDYRRTGYPVLPINPATNRNTMNDRLPMRWMYPKSESDYNLEHQNEALERQFGGVDDVNKLMWILQ
- glycan array binding signal (z-score) [1]: -0.288
- glycan array binding signal (z-score) [2]: -0.269
- glycan array binding signal (z-score) [3]: 0.461
- glycan array binding signal (z-score) [4]: 4.41
- glycan array binding signal (z-score) [5]: -0.108
- glycan array binding signal (z-score) [6]: 1.79
- glycan array binding signal (z-score) [7]: 0.462
- glycan array binding signal (z-score) [8]: 0.792
- glycan array binding signal (z-score) [9]: -0.091
- glycan array binding signal (z-score) [10]: -0.864
- glycan array binding signal (z-score) [11]: -0.09
- glycan array binding signal (z-score) [12]: -0.411
- glycan array binding signal (z-score) [13]: -0.74
- glycan array binding signal (z-score) [14]: 0.079
- glycan array binding signal (z-score) [15]: -0.935
- glycan array binding signal (z-score) [16]: 0.506
- glycan array binding signal (z-score) [17]: -0.539
- glycan array binding signal (z-score) [18]: 0.359
- glycan array binding signal (z-score) [19]: 1.22
- glycan array binding signal (z-score) [20]: -0.153
- glycan array binding signal (z-score) [21]: 2.85
- glycan array binding signal (z-score) [22]: 2.58
- glycan array binding signal (z-score) [23]: -0.681
- glycan array binding signal (z-score) [24]: -0.603
- glycan array binding signal (z-score) [25]: 2.06
- glycan array binding signal (z-score) [26]: -1
- glycan array binding signal (z-score) (Neu5Ac(a2-6)GalNAc): -0.97
- glycan array binding signal (z-score) [27]: -0.624
- glycan array binding signal (z-score) [28]: -0.052
- glycan array binding signal (z-score) [29]: -0.846
- glycan array binding signal (z-score) [30]: -0.933
